Test results as given in PubChem BioAssay AID2685 (National Center for Advancing Translational Sciences (NCATS), 2010).
Some of the results follow. The main result of the screen is listed elsewhere. These columns were measured beside it and carry no call. The list favours compounds with an active or inconclusive main result. Potencies come from curve fits of mixed quality, noted in brackets.

Test: qHTS Assay for Lipid Storage Modulators in Drosophila S3 Cells;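 for cell number change: cells counted by Cell Tracker Red CMTPX staining in the red channel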
Settings: BODIPY lipid droplet fluorescence, 18-24 h; for cell number change: measured here: cell count max response, cells fed with added oleic acid
Procedure, shortened: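 Laser-scanning cytometry quantifies lipid droplet accumulation (500–530 nm total intensity; droplet/cell object ratio) in oleic acid-fed (400 uM added) Drosophila S3 cells treated with a concentration series. 20 uM Triacsin C defined 100% inhibition.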

[1] = measured here: lipid fluorescence (Fed channel) AC50, cells fed with added oleic acid
[2] = measured here: cell number channel AC50, cells fed with added oleic acid

Row | Structure (SMILES) | cell number change | AC50 [1] | AC50 [2]
1 | Cc1ccc(CCC(=O)Nc2ccccc2C(=O)O)o1 | 0.885% | 29.1 µM [falling, single point] | –
2 | O=S(=O)(c1cccc2nsnc12)N1CCN(C/C=C\c2ccccc2)CC1 | – | 6.51 µM [rising, single point] | 2.06 µM [rising, partial curve, poor fit]
3 | CCN(CC(=O)Nc1ccc(NC(C)=O)cc1)C(=O)C(c1ccccc1)c1ccccc1 | 3.99% | 0.00461 µM [rising, full curve, poor fit] | –
4 | C=CCNC(=O)/C(=C\C=C\c1ccccc1)NC(=O)c1ccccc1Cl | 20.9% | 2.59 µM [rising, partial curve] | –
5 | C=CCNC(=O)Nc1ccc(Br)cc1Cl | -18% | 0.58 µM [falling, partial curve, poor fit] | –
6 | C=C1CCN(Cc2ccccc2)S(=O)(=O)c2ccccc21 | 20.6% | 5.8 µM [rising, partial curve] | –
7 | CO/N=C(\Cn1ncc(N2CCCC2)c(Cl)c1=O)c1ccc(Cl)cc1 | -11.4% | – | –
8 | Cc1cc2nc(CCN(C(=S)NCC3CCCO3)C3CCCC3)[nH]c2cc1C (stereo unspecified) | 16.9% | 1.16 µM [rising, single point] | 0.82 µM [rising, single point]
9 | O=Cc1ccc(Oc2ccc(F)cc2)nc1 | -14.9% | – | –
10 | COC(=O)c1ccc(CNC(=O)COC(=O)c2cc(Cl)nc(Cl)c2)cc1 | -4.03% | – | –
11 | CC1(C)CC(=O)C2=C(C1)c1c(ccc3ncccc13)NC2c1cccs1 (stereo unspecified) | -17.2% | 2.59 µM [rising, single point] | –
12 | Cc1ccc(NC(=O)c2ccc3snnc3c2)cc1C | 29% | – | –
13 | CC(C)(C)Sc1ccc(N)nc1 | 8.58% | 0.00731 µM [falling, full curve, poor fit] | –
14 | NC(=O)C1CCN(CCC(=O)Nc2cccc(Cl)c2)CC1 | 1.4% | 32.6 µM [falling, single point] | –
15 | Cc1cccc(NCc2nnc(-c3ccccc3)o2)c1C | -8.54% | – | 1.03 µM [rising, full curve, poor fit]
16 | Cc1ccc(S(=O)(=O)NCc2cccnc2)cc1C | 35.8% | – | 0.731 µM [rising, full curve]
17 | CN(C)S(=O)(=O)c1ccc(C(=O)NCc2nnc(SCC(=O)NCc3ccco3)o2)cc1 | 18.6% | 2.59 µM [rising, single point] | –
18 | COc1ccc(/C=C2\SC(=S)N(NC(=O)c3ccncc3)C2=O)cc1OC | -2.23% | – | –
19 | CC1SC(C)C(=O)N(CC(=O)NC2CCCCC2)C1=O (stereo unspecified) | -9.49% | 2.06 µM [rising, partial curve] | 1.84 µM [rising, partial curve]
20 | COc1cccc(NC(=O)CN(c2cccc(OC)c2)S(C)(=O)=O)c1 | -6.77% | 0.164 µM [falling, full curve, poor fit] | –
21 | CCOc1ccc(OCCC(=O)NNC(=O)c2ccccc2Cl)cc1 | 61% | 6.51 µM [rising, partial curve] | 13 µM [rising, partial curve]

Structures from the list above that have a furan ring, fused or not, in the order listed:
Row | Structure (SMILES) | cell number change | AC50 [1] | AC50 [2]
1 | Cc1ccc(CCC(=O)Nc2ccccc2C(=O)O)o1 | 0.885% | 29.1 µM [falling, single point] | –
17 | CN(C)S(=O)(=O)c1ccc(C(=O)NCc2nnc(SCC(=O)NCc3ccco3)o2)cc1 | 18.6% | 2.59 µM [rising, single point] | –

Nos. 15–16 of the list above:
Row | Structure (SMILES) | cell number change | AC50 [1] | AC50 [2]
15 | Cc1cccc(NCc2nnc(-c3ccccc3)o2)c1C | -8.54% | – | 1.03 µM [rising, full curve, poor fit]
16 | Cc1ccc(S(=O)(=O)NCc2cccnc2)cc1C | 35.8% | – | 0.731 µM [rising, full curve]

(cont.)

Row | Structure (SMILES) | cell number change | AC50 [1] | AC50 [2]
22 | C#CCOCCOCCOCCNc1nc(N2CCN(C(=O)CCCCCCCCCCNC(=O)[C@H](CCCCN)n3cc(CCO)nn3)CC2)nc(N2CCN(C(=O)CCCCCCCCCCNC(=O)[C@H](CCCN=C(N)N)n3cc(C[C@@H](C)CC)nn3)CC2)n1 | -60.7% | 11.6 µM [falling, single point] | 18.4 µM [falling, single point]
23 | O=C1CCCCCN1C(=O)c1cccc(C(=O)N2CCCCCC2=O)c1 | 6.45% | 29.1 µM [falling, single point] | –
24 | Cc1ccnc(Nc2nc(-c3ccc(O)c(O)c3)cs2)c1 | -48.9% | – | 29.1 µM [falling, single point]
25 | CN(CC(=O)Nc1cc([N+](=O)[O-])ccc1Cl)Cc1ccc(Br)cc1 | 1.16% | 0.731 µM [rising, single point] | –
26 | O=C(CCCCCN1C(=O)[C@@H]2Cc3ccccc3CN2C1=O)Nc1ccccc1F | – | 0.291 µM [rising, partial curve, poor fit] | –
27 | COc1cccc(CN2CC(C(=O)NCCc3ccccc3C(F)(F)F)CCC2=O)c1 (stereo unspecified) | 37.8% | 29.1 µM [rising, single point] | –
28 | COc1ccc(NC(=O)c2cc([N+](=O)[O-])ccc2NC(=O)CNC2CCCCC2C)c(OC)c1 (stereo unspecified) | -15.1% | 4.11 µM [falling, full curve, poor fit] | –
29 | CCOc1ccc2nc(/N=C/c3c(C)[nH]n(-c4ccc(C)cc4)c3=O)sc2c1 | -11.7% | – | 6.51 µM [rising, single point]
30 | COC(=O)c1cc(NC(=O)Cn2c(=O)oc3ccccc32)cc(C(=O)OC)c1 | 49.2% | 6.51 µM [falling, single point] | –
31 | Cc1ccc(SCCC(=O)OC(C)C(=O)Nc2ccccc2)cc1 (stereo unspecified) | 16.3% | 16.4 µM [falling, single point] | –
32 | CC(=O)c1cc2c(cc1NC(=O)c1cc3nc(C(C)C)cc(C(F)(F)F)n3n1)OCO2 | 38% | 0.103 µM [rising, full curve, poor fit] | 0.103 µM [rising, full curve, poor fit]
33 | COc1ccccc1N1CCN(C(=O)C(C)N(c2ccccc2)S(C)(=O)=O)CC1 (stereo unspecified) | 24.8% | 0.731 µM [rising, full curve, poor fit] | –
34 | COc1ccccc1N1CCN(Cc2nc(N)nc(Nc3ccc(C)c(Cl)c3)n2)CC1 | -85.1% | 0.651 µM [rising, partial curve, poor fit] | –
35 | O=C(CS(=O)(=O)Cc1ccccc1)N1CCN(C(=O)c2ccco2)CC1 | -16% | – | –
36 | O=C(Nc1ccc(N2CCCCC2)cc1)c1ccc(F)cc1 | 39.4% | 29.1 µM [rising, single point] | 29.1 µM [rising, single point]
37 | O=C(COC(=O)c1cccs1)NCCCc1ccccc1 | 28.2% | 6.51 µM [falling, partial curve, poor fit] | –
38 | Cc1ccc(C(=O)C(C)OC(=O)c2nc(Cl)ccc2Cl)cc1 (stereo unspecified) | 10.3% | 20.6 µM [rising, single point] | –
39 | O=C(CNC(=O)c1cccc(F)c1)N/N=C/c1ccc([N+](=O)[O-])s1 | -34.7% | 20.6 µM [falling, partial curve] | 23.1 µM [falling, partial curve, poor fit]
40 | COc1ccc(/C=C2\CCCC3C2=NC(=S)NC3c2ccc(OC)cc2)cc1 (stereo unspecified) | 7.46% | – | –
41 | CCN(CC)c1ccc(N)cc1 | -83.4% | 0.82 µM [rising, single point] | 8.2 µM [falling, single point]
42 | FC(F)Oc1ccccc1NC(=S)Nc1cccc(Cl)c1Cl | -17.3% | 7.31 µM [rising, partial curve, poor fit] | –

Row | Structure (SMILES) | cell number change | AC50 [1] | AC50 [2]
43 | Cc1ccc(C)c(N2CCN(C(=O)c3cc(S(=O)(=O)N4CCOCC4)cn3C)CC2)c1 | 4.32% | 0.184 µM [falling, full curve, poor fit] | –
44 | Cc1cc(NC(=O)CSc2nc(=O)n3cccc(C)c3n2)no1 | 28.2% | – | 0.146 µM [rising, full curve, poor fit]
45 | CCCCCCC(C)OC(=O)c1ccccc1C(=O)O (stereo unspecified) | -16.1% | 29.1 µM [rising, single point] | –
46 | CCCNC(=O)/C(C#N)=C1\N=C(NC(=O)c2ccco2)c2ccccc21 | -9.89% | 29.1 µM [falling, single point] | –
47 | Cc1ccc(SC[C@H](C)CN2CC[C@H](NC(=O)OCc3ccccc3)CCC2=O)cc1 | 0.971% | – | –
48 | O=C(NC(Cc1ccccc1)C(=O)NCCc1ccccn1)c1cccs1 (stereo unspecified) | -4.96% | – | –
49 | O=C(CSc1nnnn1-c1ccc2c(c1)OCCO2)Nc1nc2c(s1)CCCC2 | -18.3% | 5.8 µM [rising, partial curve] | –
50 | Cc1ccccc1OCCC(=O)OCC(=O)NC1CCS(=O)(=O)C1 (stereo unspecified) | -32.6% | 11.6 µM [falling, partial curve] | 3.26 µM [falling, full curve]
51 | CC1CCc2c(c3ccccc3n2C(=O)CCl)C1 (stereo unspecified) | -20.1% | 2.91 µM [falling, partial curve] | –
52 | O=C(O)C1C2CCC(O2)C1C(=O)Nc1ccc(OC(F)F)cc1 (stereo unspecified) | -0.275% | – | –
53 | CCOc1ccccc1OCc1nn2c(-c3ccc(C)cc3)nnc2s1 | 3.31% | – | –
54 | O=C1N/C(=C\c2ccc(O)cc2)C(=O)c2ccccc21 | -17.2% | – | –
55 | Fc1cc(Br)ccc1Nc1nc2ccccc2n2nnnc12 | -51.1% | 7.31 µM [falling, partial curve] | 6.51 µM [falling, full curve]
56 | COc1ccc(N(CC(=O)Nc2ccccc2OC)S(=O)(=O)c2ccc(OC)c(OC)c2)cc1 | 13.7% | – | –
57 | COc1ccc(C(=O)n2nc(-c3ccc(C)cc3)nc2N)cc1OC | 2.03% | 0.00411 µM [rising, full curve, poor fit] | –
58 | O=C(CCC(=O)c1cccs1)OCC(=O)N1CCN(C(=O)c2ccco2)CC1 | -19.2% | – | –
59 | Cc1ccc(C)c(N2CCN(C(=O)c3ccc(Cl)c(NC4=NC5CS(=O)(=O)CC5S4)c3)CC2)c1 (stereo unspecified) | – | 29.1 µM [falling, single point] | –
60 | O=C1c2ccccc2C(=O)N1CCN1CCc2ccccc21 | -1.87% | 1.46 µM [rising, full curve, poor fit] | –
61 | COC(=O)c1ccc(Oc2c(F)c(F)nc(N3CCOCC3)c2F)cc1 | -23.3% | 23.1 µM [falling, single point] | –
